Article PMC10020529
These are yes or no findings as the source states them, for the method shown. In cells and extracts the contact can be indirect. Some binding calls cover weakened binding; strength is not graded here. Where a sequence is shown, tags or fusion partners need not be part of it. One block for each molecule: values may come before it.

By UniProt entry, the sequences of proteins in these tests, tags left out.
UniProt P24385: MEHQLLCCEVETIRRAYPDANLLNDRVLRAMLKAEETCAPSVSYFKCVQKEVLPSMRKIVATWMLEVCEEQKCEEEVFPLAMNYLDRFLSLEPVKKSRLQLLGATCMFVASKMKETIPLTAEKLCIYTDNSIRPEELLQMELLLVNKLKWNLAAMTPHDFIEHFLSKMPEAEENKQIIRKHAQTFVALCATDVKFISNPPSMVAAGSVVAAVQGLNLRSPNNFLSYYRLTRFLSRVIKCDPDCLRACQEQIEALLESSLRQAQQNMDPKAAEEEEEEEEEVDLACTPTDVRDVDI

Legend:
3 × Flag-FBXO43 = molecular target: T1, 3 × Flag-FBXO43 (UniProt Q4G163); assay: co-IP; Huh7 and LM3 cells transfected with 3 × Flag-FBXO43 for 48 h; lysate immunoprecipitated with anti-Flag (normal IgG as control), Protein A/G PLUS-Agarose, 4°C overnight; washed with 20 mM Tris-HCl pH 8.0, 100 mM NaCl, 1% NP-40; Western blot
T1 sequence: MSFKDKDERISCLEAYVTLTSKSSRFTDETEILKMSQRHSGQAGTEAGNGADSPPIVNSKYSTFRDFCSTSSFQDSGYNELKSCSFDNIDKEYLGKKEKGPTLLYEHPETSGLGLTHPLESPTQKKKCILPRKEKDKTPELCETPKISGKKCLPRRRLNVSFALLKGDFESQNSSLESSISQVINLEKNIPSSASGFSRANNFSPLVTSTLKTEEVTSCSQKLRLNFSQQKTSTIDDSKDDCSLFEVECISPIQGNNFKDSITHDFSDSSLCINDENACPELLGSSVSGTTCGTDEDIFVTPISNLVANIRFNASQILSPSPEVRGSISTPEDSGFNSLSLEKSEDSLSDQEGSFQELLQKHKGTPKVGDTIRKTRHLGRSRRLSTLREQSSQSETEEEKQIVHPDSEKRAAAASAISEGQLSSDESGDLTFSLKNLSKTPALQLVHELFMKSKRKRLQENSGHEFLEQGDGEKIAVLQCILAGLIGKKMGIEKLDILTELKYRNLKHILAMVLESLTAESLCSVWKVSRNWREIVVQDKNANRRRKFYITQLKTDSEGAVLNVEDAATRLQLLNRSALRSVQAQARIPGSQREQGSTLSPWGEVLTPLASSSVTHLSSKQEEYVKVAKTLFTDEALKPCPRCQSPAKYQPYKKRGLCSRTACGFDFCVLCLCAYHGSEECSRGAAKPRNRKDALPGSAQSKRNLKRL

[1] = molecular target: cyclin D1 (CCND1) (human (endogenous in Huh7 and LM3)) (UniProt P24385); assay: co-IP; Huh7 and LM3 cells transfected with indicated plasmids; lysate immunoprecipitated with anti-CCND1 (normal IgG as control), Protein A/G PLUS-Agarose, 4°C overnight; washed with 20 mM Tris-HCl pH 8.0, 100 mM NaCl, 1% NP-40; Western blot

- binding (3 × Flag-FBXO43): binds
Molecule: cyclin D1 (CCND1) (from UniProt P24385 1-295)

- binding [1]: binds
B1: 3 × Flag-FBXO43 (protein, UniProt Q4G163 1-708)
chain: T1 sequence
